Reference: patent US7476526B2, “Method of using a gene conferring resistance to 4,5-dihydroxy-2-cyclopenten-1-one (DHCP) and identifying inhibitors of a polypeptide encoded by the gene” (priority 2000, dated 2009)
At least one structure is not confirmed: it was looked up by name or label, or the drawing left a doubt.

System: E. coli JM83 cells harboring pSP007
Assay: Minimum inhibitory concentrations on LB plates, cells harboring pSP007 (dep, ORF389)
Type: cell-based, Escherichia coli
Details: pSP007 versus pUC19
Method: The E. coli wild-type cells harboring pUC19 or pSP007 plasmid were grown overnight in LB medium containing ampicillin. The cells were diluted 10- and 1000-times, and 5 µl of each dilution (corresponding to 3.5×10^5 cells and 3.5×10^3 cells, respectively) was spotted on LB plates containing serial dilutions of kanamycin, chloramphenicol, spectinomycin, tetracycline and DHCP. Plates were incubated at 37° C. for 20 h. […] The MIC values for cells harboring pUC19 and pSP007 were same for spectinomycin, chloramphenicol and tetracycline. The MIC value was two times higher for kanamycin for the cells harboring pSP007 than the cells with pUC19. The MIC value for DHCP on the other hand was 8 times higher for the cells-harboring pSP007 than that for the cells with pUC19.
MICs for both dilutions of the cells (3.5×10^5 and 3.5×10^3) were the same.

Compound	MIC value for cells harboring pSP007 relative to cells with pUC19
NC[C@H]1O[C@H](O[C@H]2[C@H](O)[C@@H](O[C@H]3O[C@H](CO)[C@@H](O)[C@H](N)[C@H]3O)[C@H](N)C[C@@H]2N)[C@H](O)[C@@H](O)[C@@H]1O [kanamycin]	two
CN(C)[C@@H]1C(O)=C(C(N)=O)C(=O)[C@@]2(O)C(O)=C3C(=O)c4c(O)cccc4[C@@](C)(O)[C@H]3C[C@@H]12 [tetracycline]	same
